# Patent US20170088623A1, “Prophylaxis Against Cancer Metastasis” (Ingeneron, Inc., priority 2015, published 2017)
# At least one compound was matched to its structure with a doubt left.
# Tested on: LCN2 expression in SKBr3 cells
# Experiment: LCN2 levels in HER2+ SKBr3 cells by Western blotting
# Type: cell-based, human
# Details: SKBr3 cells incubated with inhibitor
# Text: FIGS. 3A-D depict experiments showing that LCN2 (NGAL) is a down-stream target of the HER2/PI-3K/AKT/NF-κB pathway.
# In addition, overexpression of dominant negative AKT led to reduced expression of LCN2, while overexpression of dominant active AKT increased LCN2 levels ([…]). […] Iannetti A, et al. “The neutrophil gelatinase-associated lipocalin (NGAL), a NF-kappaB-regulated gene, is a survival factor for thyroid neoplastic cells” Proc Natl Acad Sci USA 105(37) (2008) 14058.
smiles,measurement,value
O=c1cc(N2CCOCC2)oc2c(-c3ccccc3)cccc12 [LY294002],LCN2 expression,reduced in a dose-dependent manner
